Measurements taken from paper PMC11362597.
These are yes or no findings as the source states them, for the method shown. In cells and extracts the contact can be indirect. Some binding calls cover weakened binding; strength is not graded here.

Protein sequences, listed by entry. Tags and fused reporters are not part of them.
UniProt P42331: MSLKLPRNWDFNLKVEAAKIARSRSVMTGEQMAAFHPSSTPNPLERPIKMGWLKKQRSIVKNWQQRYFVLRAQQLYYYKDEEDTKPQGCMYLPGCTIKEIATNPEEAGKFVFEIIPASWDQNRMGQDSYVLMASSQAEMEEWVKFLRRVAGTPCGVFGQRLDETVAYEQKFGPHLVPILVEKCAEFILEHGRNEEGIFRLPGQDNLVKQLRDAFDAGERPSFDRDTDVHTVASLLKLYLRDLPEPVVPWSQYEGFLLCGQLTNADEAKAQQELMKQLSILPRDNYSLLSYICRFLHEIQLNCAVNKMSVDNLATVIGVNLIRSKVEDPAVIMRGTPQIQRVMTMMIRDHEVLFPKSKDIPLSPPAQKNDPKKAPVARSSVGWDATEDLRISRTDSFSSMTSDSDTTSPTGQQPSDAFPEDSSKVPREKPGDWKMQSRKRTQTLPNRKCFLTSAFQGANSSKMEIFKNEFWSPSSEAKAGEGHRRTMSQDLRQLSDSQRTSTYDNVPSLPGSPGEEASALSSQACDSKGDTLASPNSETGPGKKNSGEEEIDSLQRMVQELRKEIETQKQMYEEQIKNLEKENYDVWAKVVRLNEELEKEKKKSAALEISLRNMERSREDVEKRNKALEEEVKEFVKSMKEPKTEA
UniProt P84095: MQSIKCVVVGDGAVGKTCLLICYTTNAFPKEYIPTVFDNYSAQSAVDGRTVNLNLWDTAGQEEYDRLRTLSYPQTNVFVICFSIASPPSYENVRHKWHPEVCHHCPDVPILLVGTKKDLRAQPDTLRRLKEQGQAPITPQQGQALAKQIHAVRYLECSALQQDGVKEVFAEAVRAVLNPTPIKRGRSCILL

Columns and labels:
[1] = biological target: GST-fused recombinant ARHGAP25 (human) (UniProt P42331); test: pull-down; eluates of the GST-ARHGAP25 and GST pull-downs from intact neutrophil lysate, immunoblotted; only the target purified
[2] = biological target: GST-fused recombinant ARHGAP25 (human) (UniProt P42331); test: pull-down; eluates of the GST-ARHGAP25 pull-downs from GTPγS- or GDPβS-loaded neutrophil lysate, immunoblotted; only the target purified

binding [1]: binds | binding [2]: binds
Substance: RHOG (from UniProt P84095 1-191)
